Among the data in US20050272633A1 are binding values, retold here.

The chains behind the UniProt entries cited, without tags or fusion partners. Where a name states a change or a piece, a line headed by the entry shows the natural chain unless it says otherwise.
UniProt P31785: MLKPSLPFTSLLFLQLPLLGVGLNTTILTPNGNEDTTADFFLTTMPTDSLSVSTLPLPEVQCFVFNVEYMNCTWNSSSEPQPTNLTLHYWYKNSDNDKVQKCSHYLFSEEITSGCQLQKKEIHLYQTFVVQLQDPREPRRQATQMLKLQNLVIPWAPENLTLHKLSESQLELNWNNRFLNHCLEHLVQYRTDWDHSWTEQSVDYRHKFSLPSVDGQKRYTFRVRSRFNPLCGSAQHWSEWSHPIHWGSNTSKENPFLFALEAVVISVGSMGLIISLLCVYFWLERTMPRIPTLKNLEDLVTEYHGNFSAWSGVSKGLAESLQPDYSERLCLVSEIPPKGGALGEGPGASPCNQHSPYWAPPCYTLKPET

Results are given in words; binding and its absence hold for the method and conditions named. A result given as binding can be weak or reduced; the word gives no strength. For some of these results: In cells and extracts the contact can be indirect. For some of these results: Sequences can lack the tags named with a protein.

The target in test [1] is IL-2 receptor common gamma chain (cγc), full length (1-369) (human) (UniProt P31785). As to the kind of experiment: yeast two-hybrid, NIK deletion mutant as bait, cγc as prey, beta-gal assay.
The target is the same in test [2]. As to the kind of experiment: co-immunoprecipitation with anti cγc from 293T cells, Western blot with anti His. Background: Immunoblotting shows a protein as a band on a membrane.
For test [3] the target is unchanged. Described as printed: two-hybrid method (Example 2 describes co-immunoprecipitation).
Test [4] shares this target. Put plainly: co-immunoprecipitation with anti myc from 293-T lysate, Western blot with anti cγc.
Test [5] has the same target. As to the kind of experiment: co-immunoprecipitation from 293-T lysates.

B1: NIK 1-820 (enzyme, human, UniProt Q99558 1-820, looked up)
chain: MAVMEMACPGAPGSAVGQQKELPKAKEKTPPLGKKQSSVYKLEAVEKSPVFCGKWEILNDVITKGTAKEGSEAGPAAISIIAQAECENSQEFSPTFSERIFIAGSKQYSQSESLDQIPNNVAHATEGKMARVCWKGKRRSKARKKRKKKSSKSLAHAGVALAKPLPRTPEQESCTIPVQEDESPLGAPYVRNTPQFTKPLKEPGLGQLCFKQLGEGLRPALPRSELHKLISPLQCLNHVWKLHHPQDGGPLPLPTHPFPYSRLPHPFPFHPLQPWKPHPLESFLGKLACVDSQKPLPDPHLSKLACVDSPKPLPGPHLEPSCLSRGAHEKFSVEEYLVHALQGSVSSGQAHSLTSLAKTWAARGSRSREPSPKTEDNEGVLLTEKLKPVDYEYREEVHWATHQLRLGRGSFGEVHRMEDKQTGFQCAVKKVRLEVFRAEELMACAGLTSPRIVPLYGAVREGPWVNIFMELLEGGSLGQLVKEQGCLPEDRALYYLGQALEGLEYLHSRRILHGDVKADNVLLSSDGSHAALCDFGHAVCLQPDGLGKSLLTGDYIPGTETHMAPEVVLGRSCDAKVDVWSSCCMMLHMLNGCHPWTQFFRGPLCLKIASEPPPVREIPPSCAPLTAQAIQEGLRKEPIHRVSAAELGGKVNRALQQVGGLKSPWRGEYKEPRHPPPNQANYHQTLHAQPRELSPRAPGPRPAEETTGRAPKLQPPLPPEPPEPNKSPPLTLSKEESGMWEPLPLSSLEPAPARNPSSPERKATVPEQELQQLEIELFLNSLSQPFSLEEQEQILSCLSIDSLSLSDDSEKNPSKASQSS
For the molecule B1, in test [1], the binding result was “binds”.

B2: NIK 1-821, His tagged (enzyme, human, UniProt Q99558 1-821, looked up)
chain: MAVMEMACPGAPGSAVGQQKELPKAKEKTPPLGKKQSSVYKLEAVEKSPVFCGKWEILNDVITKGTAKEGSEAGPAAISIIAQAECENSQEFSPTFSERIFIAGSKQYSQSESLDQIPNNVAHATEGKMARVCWKGKRRSKARKKRKKKSSKSLAHAGVALAKPLPRTPEQESCTIPVQEDESPLGAPYVRNTPQFTKPLKEPGLGQLCFKQLGEGLRPALPRSELHKLISPLQCLNHVWKLHHPQDGGPLPLPTHPFPYSRLPHPFPFHPLQPWKPHPLESFLGKLACVDSQKPLPDPHLSKLACVDSPKPLPGPHLEPSCLSRGAHEKFSVEEYLVHALQGSVSSGQAHSLTSLAKTWAARGSRSREPSPKTEDNEGVLLTEKLKPVDYEYREEVHWATHQLRLGRGSFGEVHRMEDKQTGFQCAVKKVRLEVFRAEELMACAGLTSPRIVPLYGAVREGPWVNIFMELLEGGSLGQLVKEQGCLPEDRALYYLGQALEGLEYLHSRRILHGDVKADNVLLSSDGSHAALCDFGHAVCLQPDGLGKSLLTGDYIPGTETHMAPEVVLGRSCDAKVDVWSSCCMMLHMLNGCHPWTQFFRGPLCLKIASEPPPVREIPPSCAPLTAQAIQEGLRKEPIHRVSAAELGGKVNRALQQVGGLKSPWRGEYKEPRHPPPNQANYHQTLHAQPRELSPRAPGPRPAEETTGRAPKLQPPLPPEPPEPNKSPPLTLSKEESGMWEPLPLSSLEPAPARNPSSPERKATVPEQELQQLEIELFLNSLSQPFSLEEQEQILSCLSIDSLSLSDDSEKNPSKASQSSR
B2: in test [2], the binding result was “binds”.

B3: NIK aly mutant (NIK-G860R), myc tagged (pcS3MTNIKaly) (enzyme, human, UniProt Q99558 1-947, looked up, not shown: small tags and cut ends)
chain: MAVMEMACPGAPGSAVGQQKELPKAKEKTPPLGKKQSSVYKLEAVEKSPVFCGKWEILNDVITKGTAKEGSEAGPAAISIIAQAECENSQEFSPTFSERIFIAGSKQYSQSESLDQIPNNVAHATEGKMARVCWKGKRRSKARKKRKKKSSKSLAHAGVALAKPLPRTPEQESCTIPVQEDESPLGAPYVRNTPQFTKPLKEPGLGQLCFKQLGEGLRPALPRSELHKLISPLQCLNHVWKLHHPQDGGPLPLPTHPFPYSRLPHPFPFHPLQPWKPHPLESFLGKLACVDSQKPLPDPHLSKLACVDSPKPLPGPHLEPSCLSRGAHEKFSVEEYLVHALQGSVSSGQAHSLTSLAKTWAARGSRSREPSPKTEDNEGVLLTEKLKPVDYEYREEVHWATHQLRLGRGSFGEVHRMEDKQTGFQCAVKKVRLEVFRAEELMACAGLTSPRIVPLYGAVREGPWVNIFMELLEGGSLGQLVKEQGCLPEDRALYYLGQALEGLEYLHSRRILHGDVKADNVLLSSDGSHAALCDFGHAVCLQPDGLGKSLLTGDYIPGTETHMAPEVVLGRSCDAKVDVWSSCCMMLHMLNGCHPWTQFFRGPLCLKIASEPPPVREIPPSCAPLTAQAIQEGLRKEPIHRVSAAELGGKVNRALQQVGGLKSPWRGEYKEPRHPPPNQANYHQTLHAQPRELSPRAPGPRPAEETTGRAPKLQPPLPPEPPEPNKSPPLTLSKEESGMWEPLPLSSLEPAPARNPSSPERKATVPEQELQQLEIELFLNSLSQPFSLEEQEQILSCLSIDSLSLSDDSEKNPSKASQSSRDTLSSGVHSWSSQAEARSSSWNMVLARGRPTDTPSYFNRVKVQIQSLNGEHLHIREFHRVKVGDIATGISSQIPAAAFSLVTKDGQPVRYDMEVPDSGIDLQCTLAPDGSFAWSWRVKHGQLENRP
Turning to B3, the binding result in test [3], in test [4] and in test [5] was “binds” each time.

B4: NIK 1-720, His tagged (enzyme, human, UniProt Q99558 1-720, looked up)
chain: MAVMEMACPGAPGSAVGQQKELPKAKEKTPPLGKKQSSVYKLEAVEKSPVFCGKWEILNDVITKGTAKEGSEAGPAAISIIAQAECENSQEFSPTFSERIFIAGSKQYSQSESLDQIPNNVAHATEGKMARVCWKGKRRSKARKKRKKKSSKSLAHAGVALAKPLPRTPEQESCTIPVQEDESPLGAPYVRNTPQFTKPLKEPGLGQLCFKQLGEGLRPALPRSELHKLISPLQCLNHVWKLHHPQDGGPLPLPTHPFPYSRLPHPFPFHPLQPWKPHPLESFLGKLACVDSQKPLPDPHLSKLACVDSPKPLPGPHLEPSCLSRGAHEKFSVEEYLVHALQGSVSSGQAHSLTSLAKTWAARGSRSREPSPKTEDNEGVLLTEKLKPVDYEYREEVHWATHQLRLGRGSFGEVHRMEDKQTGFQCAVKKVRLEVFRAEELMACAGLTSPRIVPLYGAVREGPWVNIFMELLEGGSLGQLVKEQGCLPEDRALYYLGQALEGLEYLHSRRILHGDVKADNVLLSSDGSHAALCDFGHAVCLQPDGLGKSLLTGDYIPGTETHMAPEVVLGRSCDAKVDVWSSCCMMLHMLNGCHPWTQFFRGPLCLKIASEPPPVREIPPSCAPLTAQAIQEGLRKEPIHRVSAAELGGKVNRALQQVGGLKSPWRGEYKEPRHPPPNQANYHQTLHAQPRELSPRAPGPRPAEETTGRAPKLQPPLPPE
B4: the binding entry in test [2] is on record as “binds”.

B5: NIK 1-771, His tagged (enzyme, human, UniProt Q99558 1-771, looked up)
chain: MAVMEMACPGAPGSAVGQQKELPKAKEKTPPLGKKQSSVYKLEAVEKSPVFCGKWEILNDVITKGTAKEGSEAGPAAISIIAQAECENSQEFSPTFSERIFIAGSKQYSQSESLDQIPNNVAHATEGKMARVCWKGKRRSKARKKRKKKSSKSLAHAGVALAKPLPRTPEQESCTIPVQEDESPLGAPYVRNTPQFTKPLKEPGLGQLCFKQLGEGLRPALPRSELHKLISPLQCLNHVWKLHHPQDGGPLPLPTHPFPYSRLPHPFPFHPLQPWKPHPLESFLGKLACVDSQKPLPDPHLSKLACVDSPKPLPGPHLEPSCLSRGAHEKFSVEEYLVHALQGSVSSGQAHSLTSLAKTWAARGSRSREPSPKTEDNEGVLLTEKLKPVDYEYREEVHWATHQLRLGRGSFGEVHRMEDKQTGFQCAVKKVRLEVFRAEELMACAGLTSPRIVPLYGAVREGPWVNIFMELLEGGSLGQLVKEQGCLPEDRALYYLGQALEGLEYLHSRRILHGDVKADNVLLSSDGSHAALCDFGHAVCLQPDGLGKSLLTGDYIPGTETHMAPEVVLGRSCDAKVDVWSSCCMMLHMLNGCHPWTQFFRGPLCLKIASEPPPVREIPPSCAPLTAQAIQEGLRKEPIHRVSAAELGGKVNRALQQVGGLKSPWRGEYKEPRHPPPNQANYHQTLHAQPRELSPRAPGPRPAEETTGRAPKLQPPLPPEPPEPNKSPPLTLSKEESGMWEPLPLSSLEPAPARNPSSPERKATVPEQELQ
In the case of B5, the binding entry in test [2] is “binds”.
